Test results from the supplement of paper PMC10060354, “Discovery of a small molecule ligand of FRS2 that inhibits invasion and tumor growth” (Cellular Oncology, 2022).

Chains of the proteins cited; added tags and fusions are not shown. Lines headed by an entry give the natural chain unless they say otherwise; changes in a name come on top.
UniProt Q9NQ48: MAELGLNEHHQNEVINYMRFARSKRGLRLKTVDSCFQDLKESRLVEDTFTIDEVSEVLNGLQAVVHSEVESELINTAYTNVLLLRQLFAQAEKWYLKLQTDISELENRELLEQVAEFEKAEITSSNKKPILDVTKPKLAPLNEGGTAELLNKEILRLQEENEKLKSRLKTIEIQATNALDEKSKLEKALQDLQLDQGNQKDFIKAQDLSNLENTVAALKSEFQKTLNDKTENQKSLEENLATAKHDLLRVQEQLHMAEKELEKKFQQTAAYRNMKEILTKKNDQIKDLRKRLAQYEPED
UniProt Q96A65: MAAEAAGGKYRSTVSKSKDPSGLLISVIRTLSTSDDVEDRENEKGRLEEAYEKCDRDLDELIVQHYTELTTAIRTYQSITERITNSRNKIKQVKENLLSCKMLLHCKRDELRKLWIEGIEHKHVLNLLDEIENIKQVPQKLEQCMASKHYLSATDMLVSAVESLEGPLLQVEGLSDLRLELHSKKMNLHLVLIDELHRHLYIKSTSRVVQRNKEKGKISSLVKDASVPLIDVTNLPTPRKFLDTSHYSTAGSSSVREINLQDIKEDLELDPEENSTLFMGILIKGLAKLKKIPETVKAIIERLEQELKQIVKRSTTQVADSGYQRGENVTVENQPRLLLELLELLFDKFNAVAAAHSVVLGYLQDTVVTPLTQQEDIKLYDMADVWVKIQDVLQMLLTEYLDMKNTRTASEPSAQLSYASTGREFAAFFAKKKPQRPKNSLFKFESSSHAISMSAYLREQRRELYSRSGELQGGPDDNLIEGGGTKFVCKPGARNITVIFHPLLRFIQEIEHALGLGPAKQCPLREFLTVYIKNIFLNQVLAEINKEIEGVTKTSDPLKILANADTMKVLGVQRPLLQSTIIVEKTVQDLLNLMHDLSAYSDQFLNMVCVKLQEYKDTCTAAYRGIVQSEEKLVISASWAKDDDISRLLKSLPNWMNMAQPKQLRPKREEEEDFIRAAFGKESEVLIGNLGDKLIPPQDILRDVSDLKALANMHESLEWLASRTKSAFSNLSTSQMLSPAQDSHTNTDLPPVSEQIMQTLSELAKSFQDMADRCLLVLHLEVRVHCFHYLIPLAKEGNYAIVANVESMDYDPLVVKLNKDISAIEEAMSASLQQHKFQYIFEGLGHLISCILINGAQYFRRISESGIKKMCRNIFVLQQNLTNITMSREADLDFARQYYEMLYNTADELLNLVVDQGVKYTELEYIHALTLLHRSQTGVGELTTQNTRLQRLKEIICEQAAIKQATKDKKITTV
UniProt Q8IYU8: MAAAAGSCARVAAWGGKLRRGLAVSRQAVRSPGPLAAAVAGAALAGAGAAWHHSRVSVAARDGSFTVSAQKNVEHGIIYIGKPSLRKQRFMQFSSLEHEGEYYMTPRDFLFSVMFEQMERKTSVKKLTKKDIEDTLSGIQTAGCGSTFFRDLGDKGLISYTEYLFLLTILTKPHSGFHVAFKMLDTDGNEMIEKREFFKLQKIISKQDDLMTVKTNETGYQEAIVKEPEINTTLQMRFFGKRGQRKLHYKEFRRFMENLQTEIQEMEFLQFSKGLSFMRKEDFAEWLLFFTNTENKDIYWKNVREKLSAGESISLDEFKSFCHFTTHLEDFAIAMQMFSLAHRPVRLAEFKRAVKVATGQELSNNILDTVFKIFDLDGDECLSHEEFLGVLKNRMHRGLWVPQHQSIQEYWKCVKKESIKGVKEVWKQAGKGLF
UniProt O43747: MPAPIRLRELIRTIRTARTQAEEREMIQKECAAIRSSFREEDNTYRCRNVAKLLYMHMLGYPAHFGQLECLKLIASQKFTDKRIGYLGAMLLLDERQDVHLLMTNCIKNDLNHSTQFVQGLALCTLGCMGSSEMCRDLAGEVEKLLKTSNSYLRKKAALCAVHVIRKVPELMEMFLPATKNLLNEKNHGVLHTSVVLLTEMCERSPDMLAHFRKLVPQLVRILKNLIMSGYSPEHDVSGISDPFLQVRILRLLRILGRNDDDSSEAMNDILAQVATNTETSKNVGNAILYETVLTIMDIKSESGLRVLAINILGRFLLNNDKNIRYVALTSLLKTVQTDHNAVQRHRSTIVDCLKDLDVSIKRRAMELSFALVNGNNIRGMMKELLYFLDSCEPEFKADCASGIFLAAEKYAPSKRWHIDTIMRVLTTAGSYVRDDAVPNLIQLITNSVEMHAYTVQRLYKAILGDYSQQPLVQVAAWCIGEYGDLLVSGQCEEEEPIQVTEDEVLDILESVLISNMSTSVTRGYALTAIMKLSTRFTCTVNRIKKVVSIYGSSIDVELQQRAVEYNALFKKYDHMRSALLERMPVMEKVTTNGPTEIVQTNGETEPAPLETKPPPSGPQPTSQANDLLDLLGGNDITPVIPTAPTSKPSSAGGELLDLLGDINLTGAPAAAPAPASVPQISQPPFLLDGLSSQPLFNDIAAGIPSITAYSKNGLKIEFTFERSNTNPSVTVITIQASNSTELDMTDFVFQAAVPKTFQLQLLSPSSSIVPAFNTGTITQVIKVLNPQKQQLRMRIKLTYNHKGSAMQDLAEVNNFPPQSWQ
UniProt Q9BXI6: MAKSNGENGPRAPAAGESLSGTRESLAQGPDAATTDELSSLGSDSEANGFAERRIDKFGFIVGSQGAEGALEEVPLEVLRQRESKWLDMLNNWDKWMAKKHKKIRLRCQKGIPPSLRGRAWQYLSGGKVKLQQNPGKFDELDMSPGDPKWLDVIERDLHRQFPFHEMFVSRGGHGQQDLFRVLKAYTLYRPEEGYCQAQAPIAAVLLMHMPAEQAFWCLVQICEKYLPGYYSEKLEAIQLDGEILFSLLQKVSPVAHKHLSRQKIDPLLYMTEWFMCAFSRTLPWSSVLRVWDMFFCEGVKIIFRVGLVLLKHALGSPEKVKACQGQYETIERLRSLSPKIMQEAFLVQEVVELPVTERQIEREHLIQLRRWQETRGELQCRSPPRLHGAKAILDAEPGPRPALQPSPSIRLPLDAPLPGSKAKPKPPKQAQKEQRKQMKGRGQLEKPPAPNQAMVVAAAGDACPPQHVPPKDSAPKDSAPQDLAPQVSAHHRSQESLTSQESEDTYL
UniProt A8MWD9, whole entry: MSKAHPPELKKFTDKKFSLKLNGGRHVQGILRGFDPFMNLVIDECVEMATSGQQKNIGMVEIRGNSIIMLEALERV
UniProt O60244: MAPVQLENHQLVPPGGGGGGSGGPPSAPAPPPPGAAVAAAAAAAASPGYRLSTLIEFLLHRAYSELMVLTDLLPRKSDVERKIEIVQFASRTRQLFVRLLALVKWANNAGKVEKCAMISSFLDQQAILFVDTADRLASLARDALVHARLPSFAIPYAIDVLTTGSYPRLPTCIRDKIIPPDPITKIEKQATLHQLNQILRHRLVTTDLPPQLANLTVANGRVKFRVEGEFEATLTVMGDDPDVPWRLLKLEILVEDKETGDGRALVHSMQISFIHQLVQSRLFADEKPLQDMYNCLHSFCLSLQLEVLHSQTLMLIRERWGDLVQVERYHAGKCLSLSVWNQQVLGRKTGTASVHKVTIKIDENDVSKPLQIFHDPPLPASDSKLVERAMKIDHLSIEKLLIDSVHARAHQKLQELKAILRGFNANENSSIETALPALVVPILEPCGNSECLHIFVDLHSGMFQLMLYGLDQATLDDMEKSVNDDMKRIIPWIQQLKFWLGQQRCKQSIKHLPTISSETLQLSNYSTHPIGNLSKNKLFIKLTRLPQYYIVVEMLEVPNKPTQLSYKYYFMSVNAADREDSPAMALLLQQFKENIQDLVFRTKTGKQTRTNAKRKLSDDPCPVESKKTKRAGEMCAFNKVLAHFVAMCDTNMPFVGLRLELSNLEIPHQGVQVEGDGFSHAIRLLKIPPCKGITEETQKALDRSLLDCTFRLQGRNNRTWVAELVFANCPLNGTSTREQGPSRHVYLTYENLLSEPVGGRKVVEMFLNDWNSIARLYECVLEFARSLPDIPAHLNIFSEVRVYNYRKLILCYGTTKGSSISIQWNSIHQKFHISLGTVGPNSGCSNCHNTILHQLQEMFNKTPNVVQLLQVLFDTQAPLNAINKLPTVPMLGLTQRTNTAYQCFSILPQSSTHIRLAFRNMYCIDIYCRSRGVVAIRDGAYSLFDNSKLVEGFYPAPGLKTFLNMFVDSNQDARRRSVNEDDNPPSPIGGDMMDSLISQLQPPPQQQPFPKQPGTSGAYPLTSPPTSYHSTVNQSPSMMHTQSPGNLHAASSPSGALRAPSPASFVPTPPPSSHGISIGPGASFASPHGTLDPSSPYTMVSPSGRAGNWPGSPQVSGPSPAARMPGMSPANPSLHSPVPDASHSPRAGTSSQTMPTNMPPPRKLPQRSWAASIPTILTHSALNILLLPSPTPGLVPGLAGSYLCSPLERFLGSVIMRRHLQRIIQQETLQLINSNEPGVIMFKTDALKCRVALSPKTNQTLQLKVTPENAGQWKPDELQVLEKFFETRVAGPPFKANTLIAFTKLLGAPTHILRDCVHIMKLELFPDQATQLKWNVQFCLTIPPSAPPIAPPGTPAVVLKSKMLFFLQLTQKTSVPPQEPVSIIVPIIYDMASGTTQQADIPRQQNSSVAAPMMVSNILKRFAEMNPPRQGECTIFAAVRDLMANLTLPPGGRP
UniProt O43169: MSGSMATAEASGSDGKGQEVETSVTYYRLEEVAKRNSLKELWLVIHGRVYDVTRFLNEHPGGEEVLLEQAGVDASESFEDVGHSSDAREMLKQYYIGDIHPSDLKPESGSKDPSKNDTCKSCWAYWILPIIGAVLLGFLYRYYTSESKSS
UniProt Q9NQG5: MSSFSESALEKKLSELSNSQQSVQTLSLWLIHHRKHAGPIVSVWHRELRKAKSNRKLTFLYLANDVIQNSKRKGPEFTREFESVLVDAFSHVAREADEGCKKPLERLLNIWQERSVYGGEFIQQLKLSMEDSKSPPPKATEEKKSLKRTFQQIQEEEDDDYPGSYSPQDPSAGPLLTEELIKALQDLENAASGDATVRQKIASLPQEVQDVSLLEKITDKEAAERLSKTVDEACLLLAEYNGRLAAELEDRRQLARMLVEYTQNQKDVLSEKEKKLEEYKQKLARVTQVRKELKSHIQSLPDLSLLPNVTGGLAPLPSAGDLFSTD
UniProt Q8NCG7: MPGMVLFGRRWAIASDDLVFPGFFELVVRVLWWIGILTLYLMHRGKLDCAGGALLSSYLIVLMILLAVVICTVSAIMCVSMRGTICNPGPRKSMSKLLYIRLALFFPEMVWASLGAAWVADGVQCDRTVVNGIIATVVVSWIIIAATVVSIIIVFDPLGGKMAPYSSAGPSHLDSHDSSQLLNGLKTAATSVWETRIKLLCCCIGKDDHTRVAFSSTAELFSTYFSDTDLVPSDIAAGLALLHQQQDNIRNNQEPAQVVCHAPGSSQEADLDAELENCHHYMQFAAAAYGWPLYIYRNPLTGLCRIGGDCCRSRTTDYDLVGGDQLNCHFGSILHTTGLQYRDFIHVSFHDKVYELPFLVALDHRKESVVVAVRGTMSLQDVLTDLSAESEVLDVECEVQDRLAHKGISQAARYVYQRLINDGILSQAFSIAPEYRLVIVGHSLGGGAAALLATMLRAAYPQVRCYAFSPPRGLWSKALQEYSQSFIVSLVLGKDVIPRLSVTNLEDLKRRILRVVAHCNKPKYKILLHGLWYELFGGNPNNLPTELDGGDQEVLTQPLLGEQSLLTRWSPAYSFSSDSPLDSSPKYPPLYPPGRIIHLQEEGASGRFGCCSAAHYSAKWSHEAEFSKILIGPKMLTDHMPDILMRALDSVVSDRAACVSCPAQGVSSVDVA
UniProt Q96ME1: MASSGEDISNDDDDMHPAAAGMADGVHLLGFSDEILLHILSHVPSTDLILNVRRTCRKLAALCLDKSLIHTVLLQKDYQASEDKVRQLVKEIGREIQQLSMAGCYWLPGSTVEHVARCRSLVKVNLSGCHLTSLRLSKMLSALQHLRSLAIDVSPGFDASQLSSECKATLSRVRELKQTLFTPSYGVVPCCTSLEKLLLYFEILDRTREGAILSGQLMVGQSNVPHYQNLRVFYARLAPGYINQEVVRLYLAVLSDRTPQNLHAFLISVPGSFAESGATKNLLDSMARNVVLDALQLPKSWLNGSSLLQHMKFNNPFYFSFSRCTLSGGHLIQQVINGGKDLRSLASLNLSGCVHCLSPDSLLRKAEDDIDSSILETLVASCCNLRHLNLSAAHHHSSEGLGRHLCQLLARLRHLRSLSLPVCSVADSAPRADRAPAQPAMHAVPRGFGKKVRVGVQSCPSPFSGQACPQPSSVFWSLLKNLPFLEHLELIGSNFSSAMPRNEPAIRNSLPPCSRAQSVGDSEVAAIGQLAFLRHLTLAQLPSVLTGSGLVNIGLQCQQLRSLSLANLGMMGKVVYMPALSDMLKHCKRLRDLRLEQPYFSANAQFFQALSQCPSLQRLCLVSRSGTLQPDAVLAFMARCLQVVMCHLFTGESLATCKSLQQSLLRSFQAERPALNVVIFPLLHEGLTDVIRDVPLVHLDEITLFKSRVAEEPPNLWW
UniProt Q9P0P0: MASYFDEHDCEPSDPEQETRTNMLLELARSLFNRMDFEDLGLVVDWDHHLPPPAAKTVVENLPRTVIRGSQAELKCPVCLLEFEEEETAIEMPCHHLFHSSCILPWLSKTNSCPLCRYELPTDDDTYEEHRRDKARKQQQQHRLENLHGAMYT

Compound: [O-][N+](C(C1=C(C(O)=C2)NC(C(C=C3)=CC=C3Cl)C4C1C=CC4)=C2Cl)=O
Assay: melting temperature shift (compound 7 minus DMSO); higher = compound stabilises the protein
Settings: 10 µM
Experimental: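 Thermal proteome profiling (TMT mass spectrometry) in intact DAOY medulloblastoma cells or DAOY lysates treated with 10 µM compound 7 or DMSO, heated at 10 temperatures from 40.5 to 73.8 °C for 3 min. Melting curves were fitted with the Bioconductor TPP package, and the melting point difference between compound and vehicle is reported per protein (single curve per condition).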

[1] = system: DAOY cell lysate, treatment time: 20 min, 4 °C
[2] = system: intact DAOY cells, treatment time: 90 min, 37 °C

Target | melting temperature shift [1] | melting temperature shift [2]
SMAD2 (UniProt Q15796) | 1.66 °C | 0.443 °C
UniProt Q9BVS4 |  | 0.401 °C
ACTR6 (UniProt Q9GZN1) | 0.42 °C | -0.305 °C
UniProt Q86UP3 | -0.805 °C | 
LZTFL1 (UniProt Q9NQ48) | -0.00968 °C | 1.6 °C
IWS1 (UniProt Q96ST2) | -1.24 °C | -0.879 °C
EXOC4 (UniProt Q96A65) | -0.756 °C | -1.02 °C
MICU2 (UniProt Q8IYU8) | 0.741 °C | -1.65 °C
UniProt P05089 | -3.73 °C | 
CDC42 (UniProt P60953) | 0.349 °C | -0.549 °C
SLC7A11 (UniProt Q9UPY5) |  | 2.52 °C
AP1G1 (UniProt O43747) | -0.364 °C | 0.019 °C
ARFGAP1 (UniProt Q8N6T3) | -0.689 °C | -0.525 °C
SIRT1 (UniProt Q96EB6) | -0.132 °C | 0.691 °C
PRTFDC1 (UniProt Q9NRG1) | 1.39 °C | 
PPP2R1A (UniProt P30153) | -0.241 °C | -0.00569 °C
TBC1D10A (UniProt Q9BXI6) | -0.695 °C | -1.77 °C
APOB (UniProt P04114) | -1.23 °C | 1.99 °C
UniProt A8MWD9 |  | -0.839 °C
MED14 (UniProt O60244) | -0.819 °C | 0.546 °C
RPL31 (UniProt P62899) | 0.67 °C | -0.657 °C
CYB5B (UniProt O43169) | 1.61 °C | 
RPRD1B (UniProt Q9NQG5) | -0.086 °C | -0.332 °C

Target | melting temperature shift [1] | melting temperature shift [2]
DNAJB1 (UniProt P25685) | -0.896 °C | -1.04 °C
DAGLB (UniProt Q8NCG7) | -0.758 °C | -3.11 °C
FBXL18 (UniProt Q96ME1) | -0.0779 °C | -1.63 °C
UniProt Q9NUS5 |  | -0.942 °C
ENDOD1 (UniProt O94919) | 1.01 °C | 0.0577 °C
UniProt P00403 | 1.33 °C | -1.4 °C
MRPS15 (UniProt P82914) | 1.54 °C | -1.03 °C
RNF181 (UniProt Q9P0P0) | -4.8 °C | 
PTGFRN (UniProt Q9P2B2) | 1.97 °C | 0.811 °C
UniProt P10589 |  | -2.84 °C
TM9SF3 (UniProt Q9HD45) | 1.38 °C | -0.957 °C
NUDC (UniProt Q9Y266) | -0.355 °C | 0.144 °C
UniProt A5D8V7 |  | -0.225 °C
UniProt Q9H977 | -1.22 °C | 0.167 °C
ETFA (UniProt P13804) | 0.411 °C | 0.296 °C
UniProt Q14657 | 0.0971 °C | 1.07 °C
SPG21 (UniProt Q9NZD8) | -0.0497 °C | 0.558 °C
ARAP1 (UniProt Q96P48) | 0.143 °C | -0.753 °C
FBXO30 (UniProt Q8TB52) | 1.1 °C | 0.372 °C
MSRB3 (UniProt Q8IXL7) | -0.258 °C | 
CTNNBL1 (UniProt Q8WYA6) | -0.484 °C | -0.511 °C
UniProt Q75QN2 | -0.389 °C | -2.21 °C
B3EWG6 (UniProt B3EWG3) | -3.53 °C | 2.12 °C

Shown with tabs: entries from further up
Target	melting temperature shift [1]	melting temperature shift [2]
SMAD2 (UniProt Q15796)	1.66 °C	0.443 °C
LZTFL1 (UniProt Q9NQ48)	-0.00968 °C	1.6 °C
SLC7A11 (UniProt Q9UPY5)		2.52 °C
ARFGAP1 (UniProt Q8N6T3)	-0.689 °C	-0.525 °C
DAGLB (UniProt Q8NCG7)	-0.758 °C	-3.11 °C
UniProt P00403	1.33 °C	-1.4 °C
MRPS15 (UniProt P82914)	1.54 °C	-1.03 °C
UniProt Q14657	0.0971 °C	1.07 °C
SPG21 (UniProt Q9NZD8)	-0.0497 °C	0.558 °C

Single values are uncertain, as repeats are few or missing.
